Measurements reported in PubChem BioAssay AID1259424 (University of Nebraska Medical Center, 2018)

Purpose: 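Rank knockdowns across the genome by resemblance to the KSR1 depletion profile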 (primary screen)
Cells: human HCT116 colon cancer cells
Reagent: siRNA pool against human genes, 50 nM
Detection: 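Six signature mRNAs by branched-DNA multiplex assay, scaled to two housekeeping genes and non-targeting median, log2; matched to mean KSR1 knockdown profile by Pearson correlation and euclidean distance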
Direction: mean correlation with KSR1 profile and KSR1 correlation: higher = expression change more like KSR1 knockdown; mean distance from KSR1 profile: higher = expression change less like KSR1 knockdown
This is one part, drawn at random, of about 14,000 reagents tested. 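Higher correlation or smaller distance means closer resemblance to KSR1 loss; control wells, including KSR1 knockdowns, recur on many plates.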 Reagent sequences are not shown. The record does not give: the time to read-out.

target gene,mean correlation with KSR1 profile,mean distance from KSR1 profile,"KSR1 correlation, replicate 1","KSR1 correlation, replicate 2","KSR1 correlation, replicate 3"
EPRS1 (glutamyl-prolyl-tRNA synthetase 1),0.565,1.7,0.589,0.46,0.502
SPACA1 (sperm acrosome associated 1),0.275,2.12,0.192,0.18,0.314
ZDBF2 (zinc finger DBF-type containing 2),0.674,1.2,0.58,0.696,0.394
"RAB31 (RAB31, member RAS oncogene family)",-0.0263,2.55,-0.275,-0.069,0.253
FGF8 (fibroblast growth factor 8),0.596,0.67,0.677,0.373,0.836
PSMA3 (proteasome 20S subunit alpha 3),-0.154,5.7,-0.0929,-0.24,-0.0639
CLCN4 (Cl-/H+ antiporter 4),-0.459,4.45,-0.39,-0.528,-0.503
"FARP2 (FERM, ARH/RhoGEF and pleckstrin domain protein 2)",-0.469,1.31,-0.58,-0.234,-0.431
SIGLEC9 (sialic acid binding Ig like lectin 9),-0.217,2.08,-0.514,-0.191,-0.375
"ERCC6 (ERCC excision repair 6, chromatin remodeling factor)",0.5,2.06,0.528,0.457,0.451
PCDHB15 (protocadherin beta 15),0.0646,2.11,0.252,0.12,-0.308
STK26 (serine/threonine kinase 26),-0.185,2.14,-0.0127,0.187,-0.467
"MAGIX (MAGI family member, X-linked)",0.468,1.67,0.494,0.535,0.447
PTPN7 (protein tyrosine phosphatase non-receptor type 7),-0.378,2.5,-0.372,-0.6,-0.381
RNF130 (ring finger protein 130),-0.345,2,-0.297,-0.477,-0.429
AHI1 (Abelson helper integration site 1),-0.177,1.85,0.215,-0.16,-0.153
SPIN2A (spindlin family member 2A),-0.276,3.45,-0.165,-0.33,-0.395
PGBD5 (piggyBac transposable element derived 5),0.441,1.31,0.547,0.23,0.514
NDUFS2 (NADH:ubiquinone oxidoreductase core subunit S2),0.12,1.76,0.133,0.0933,0.0529
DRG2 (developmentally regulated GTP binding protein 2),0.122,1.69,0.409,-0.0437,0.27
STX2 (syntaxin 2),0.478,1.25,0.318,0.262,0.545
"PCDHGA10 (protocadherin gamma subfamily A, 10)",0.145,2.88,-0.0545,0.0977,0.307
PNMA8B (PNMA family member 8B),-0.475,4.71,-0.295,-0.26,-0.355
SPAG7 (sperm associated antigen 7),-0.579,3,-0.499,-0.414,-0.652
CPSF6 (cleavage and polyadenylation specific factor 6),-0.53,4.11,-0.477,-0.527,-0.556
"DEPDC5 (DEP domain containing 5, GATOR1 subcomplex subunit)",0.035,1.57,0.221,0.0039,0.144
VPS11 (VPS11 core subunit of CORVET and HOPS complexes),-0.438,2.95,-0.38,-0.336,-0.256
"ST3GAL4 (ST3 beta-galactoside alpha-2,3-sialyltransferase 4)",0.504,1.85,0.507,0.388,0.597
BAG6 (BAG cochaperone 6),-0.0678,2.89,0.0622,-0.0483,-0.136
PBDC1 (polysaccharide biosynthesis domain containing 1),-0.26,1.43,-0.368,-0.304,0.0126
USP39 (ubiquitin specific peptidase 39),-0.455,2.54,0.0404,-0.682,-0.701
ANKRD12 (ankyrin repeat domain 12),-0.203,1.23,-0.138,-0.255,-0.233

Continued, starting with the last 4 of the part before.
target gene,mean correlation with KSR1 profile,mean distance from KSR1 profile,"KSR1 correlation, replicate 1","KSR1 correlation, replicate 2","KSR1 correlation, replicate 3"
BAG6 (BAG cochaperone 6),-0.0678,2.89,0.0622,-0.0483,-0.136
PBDC1 (polysaccharide biosynthesis domain containing 1),-0.26,1.43,-0.368,-0.304,0.0126
USP39 (ubiquitin specific peptidase 39),-0.455,2.54,0.0404,-0.682,-0.701
ANKRD12 (ankyrin repeat domain 12),-0.203,1.23,-0.138,-0.255,-0.233
NTM (neurotrimin),0.657,4.68,0.327,0.543,0.559
SPIDR (scaffold protein involved in DNA repair),-0.363,1.64,-0.376,-0.31,-0.319
MCAT,0.509,2.88,0.373,0.188,0.284
CTDSPL2 (CTD small phosphatase like 2),0.0534,1.45,0.0718,0.0609,-0.00328
EGFL6 (EGF like domain multiple 6),0.437,1.72,0.399,-0.0436,0.656
SPART (spartin),-0.0118,3.02,-0.135,0.0173,0.0146
HSPA13 (heat shock protein family A (Hsp70) member 13),-0.00338,1.91,0.4,0.085,-0.375
ARL6IP4 (ARF like GTPase 6 interacting protein 4),0.252,1.17,0.194,0.0394,0.338
ASPHD2 (aspartate beta-hydroxylase domain containing 2),0.44,2.7,0.608,0.372,0.37
BMAL2 (basic helix-loop-helix ARNT like 2),0.731,0.598,0.653,0.607,0.268
ATP5MC1 (ATP synthase membrane subunit c locus 1),-0.382,2.56,-0.254,-0.461,-0.362
OTC (ornithine transcarbamylase),0.374,1.09,-0.517,0.494,0.158
TRAIP (TRAF interacting protein),0.0889,1.63,-0.0266,0.0386,0.134
POP1 (POP1 ribonuclease P/MRP subunit),-0.43,3.36,-0.299,-0.412,-0.401
TLX3 (T cell leukemia homeobox 3),-0.256,3.38,-0.553,-0.352,-0.331
IL2RA (interleukin 2 receptor subunit alpha),-0.0359,1.19,0.212,-0.186,-0.0651
ZNF566 (zinc finger protein 566),0.944,0.674,0.888,0.858,0.924
ADAMTS8 (ADAM metallopeptidase with thrombospondin type 1 motif 8),-0.225,1.11,-0.577,-0.147,0.0832
MST1 (macrophage stimulating 1),0.447,1.15,0.335,0.448,0.265
PPP1R3E (protein phosphatase 1 regulatory subunit 3E),0.698,2.3,0.437,0.636,0.705
SLC27A4,-0.65,3.11,-0.661,-0.62,-0.544
LRRC8A (leucine rich repeat containing 8 VRAC subunit A),-0.324,2.59,-0.254,-0.232,-0.355
ARHGEF1 (Rho guanine nucleotide exchange factor 1),0.729,0.629,0.656,0.468,0.944
MEIS2 (Meis homeobox 2),-0.737,3.27,-0.131,-0.845,-0.649
SRSF7 (serine and arginine rich splicing factor 7),0.189,3.24,0.0153,0.108,0.143
ABCA2 (ATP binding cassette subfamily A member 2),-0.673,2.88,-0.249,-0.894,-0.618
CCDC93 (CCC complex scaffolding subunit CCDC93),-0.324,4.08,-0.343,-0.288,-0.362
OTUD4 (OTU deubiquitinase 4),-0.519,1.6,-0.744,-0.402,-0.537
"LNPK (lunapark, ER junction formation factor)",0.427,1.4,0.194,0.348,0.432
ORMDL1 (ORMDL sphingolipid biosynthesis regulator 1),-0.314,2.09,-0.421,-0.145,-0.118
TBXT (T-box transcription factor T),0.495,4.3,0.463,0.573,0.554
